# No constants are given. Whether binding was seen depends on the method and setting. In cells and extracts the contact can be indirect. Some binding calls cover weakened binding; strength is not graded here. Tags and fused reporters may be left off the sequences shown.
# Chains of the proteins cited; added tags and fusions are not shown. Lines headed by an entry give the natural chain unless they say otherwise; changes in a name come on top.
# UniProt Q9P253: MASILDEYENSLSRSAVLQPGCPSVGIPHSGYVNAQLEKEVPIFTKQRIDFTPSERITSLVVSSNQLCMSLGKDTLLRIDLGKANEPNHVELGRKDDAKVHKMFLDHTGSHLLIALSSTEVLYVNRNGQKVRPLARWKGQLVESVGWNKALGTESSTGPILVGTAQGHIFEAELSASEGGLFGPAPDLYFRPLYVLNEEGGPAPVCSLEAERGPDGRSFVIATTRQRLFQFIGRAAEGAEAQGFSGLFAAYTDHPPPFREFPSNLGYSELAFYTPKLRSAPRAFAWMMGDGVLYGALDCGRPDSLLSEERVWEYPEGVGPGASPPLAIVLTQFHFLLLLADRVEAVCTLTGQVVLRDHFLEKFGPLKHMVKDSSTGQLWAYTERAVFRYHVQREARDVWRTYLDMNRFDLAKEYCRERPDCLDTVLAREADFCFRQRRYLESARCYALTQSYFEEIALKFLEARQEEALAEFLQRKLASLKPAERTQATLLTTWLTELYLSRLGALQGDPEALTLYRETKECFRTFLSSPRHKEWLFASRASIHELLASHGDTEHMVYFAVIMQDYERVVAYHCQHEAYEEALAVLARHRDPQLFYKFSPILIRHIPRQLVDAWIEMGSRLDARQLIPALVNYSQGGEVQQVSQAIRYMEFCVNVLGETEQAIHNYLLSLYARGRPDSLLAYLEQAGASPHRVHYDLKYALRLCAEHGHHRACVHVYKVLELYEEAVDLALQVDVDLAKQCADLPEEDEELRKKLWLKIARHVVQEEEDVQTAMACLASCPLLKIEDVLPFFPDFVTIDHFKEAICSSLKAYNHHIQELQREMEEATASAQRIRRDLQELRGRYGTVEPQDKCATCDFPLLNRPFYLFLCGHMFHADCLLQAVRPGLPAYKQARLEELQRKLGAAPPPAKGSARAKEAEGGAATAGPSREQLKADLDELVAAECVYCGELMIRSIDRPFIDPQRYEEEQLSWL
# T1: Myc-VPS41 (human (cDNA from HeLa Kyoto cells)) (UniProt P49754)
# T1 sequence: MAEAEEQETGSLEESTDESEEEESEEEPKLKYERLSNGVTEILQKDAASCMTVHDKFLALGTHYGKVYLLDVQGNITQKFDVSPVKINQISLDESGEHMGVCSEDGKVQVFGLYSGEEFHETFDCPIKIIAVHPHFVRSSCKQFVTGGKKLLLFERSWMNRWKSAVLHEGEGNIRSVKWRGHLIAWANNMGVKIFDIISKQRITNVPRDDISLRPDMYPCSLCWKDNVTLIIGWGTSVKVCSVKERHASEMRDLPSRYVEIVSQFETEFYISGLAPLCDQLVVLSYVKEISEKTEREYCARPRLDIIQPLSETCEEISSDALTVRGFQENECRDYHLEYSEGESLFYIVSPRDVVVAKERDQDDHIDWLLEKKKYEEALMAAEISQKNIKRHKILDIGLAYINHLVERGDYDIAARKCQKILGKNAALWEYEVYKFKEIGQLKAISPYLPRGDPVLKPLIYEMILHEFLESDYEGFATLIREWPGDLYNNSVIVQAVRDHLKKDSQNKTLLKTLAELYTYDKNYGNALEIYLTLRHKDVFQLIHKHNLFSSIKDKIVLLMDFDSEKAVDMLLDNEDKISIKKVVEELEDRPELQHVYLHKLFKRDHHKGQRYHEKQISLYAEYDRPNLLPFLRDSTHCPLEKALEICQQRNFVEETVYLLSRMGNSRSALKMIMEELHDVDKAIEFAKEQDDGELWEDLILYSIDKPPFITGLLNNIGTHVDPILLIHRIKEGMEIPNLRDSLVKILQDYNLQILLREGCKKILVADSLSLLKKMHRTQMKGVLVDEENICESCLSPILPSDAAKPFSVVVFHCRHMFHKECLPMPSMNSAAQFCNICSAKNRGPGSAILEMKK
# T2: Myc-VPS8 (human (cDNA from HeLa Kyoto cells)) (UniProt Q8N3P4)
# T2 sequence: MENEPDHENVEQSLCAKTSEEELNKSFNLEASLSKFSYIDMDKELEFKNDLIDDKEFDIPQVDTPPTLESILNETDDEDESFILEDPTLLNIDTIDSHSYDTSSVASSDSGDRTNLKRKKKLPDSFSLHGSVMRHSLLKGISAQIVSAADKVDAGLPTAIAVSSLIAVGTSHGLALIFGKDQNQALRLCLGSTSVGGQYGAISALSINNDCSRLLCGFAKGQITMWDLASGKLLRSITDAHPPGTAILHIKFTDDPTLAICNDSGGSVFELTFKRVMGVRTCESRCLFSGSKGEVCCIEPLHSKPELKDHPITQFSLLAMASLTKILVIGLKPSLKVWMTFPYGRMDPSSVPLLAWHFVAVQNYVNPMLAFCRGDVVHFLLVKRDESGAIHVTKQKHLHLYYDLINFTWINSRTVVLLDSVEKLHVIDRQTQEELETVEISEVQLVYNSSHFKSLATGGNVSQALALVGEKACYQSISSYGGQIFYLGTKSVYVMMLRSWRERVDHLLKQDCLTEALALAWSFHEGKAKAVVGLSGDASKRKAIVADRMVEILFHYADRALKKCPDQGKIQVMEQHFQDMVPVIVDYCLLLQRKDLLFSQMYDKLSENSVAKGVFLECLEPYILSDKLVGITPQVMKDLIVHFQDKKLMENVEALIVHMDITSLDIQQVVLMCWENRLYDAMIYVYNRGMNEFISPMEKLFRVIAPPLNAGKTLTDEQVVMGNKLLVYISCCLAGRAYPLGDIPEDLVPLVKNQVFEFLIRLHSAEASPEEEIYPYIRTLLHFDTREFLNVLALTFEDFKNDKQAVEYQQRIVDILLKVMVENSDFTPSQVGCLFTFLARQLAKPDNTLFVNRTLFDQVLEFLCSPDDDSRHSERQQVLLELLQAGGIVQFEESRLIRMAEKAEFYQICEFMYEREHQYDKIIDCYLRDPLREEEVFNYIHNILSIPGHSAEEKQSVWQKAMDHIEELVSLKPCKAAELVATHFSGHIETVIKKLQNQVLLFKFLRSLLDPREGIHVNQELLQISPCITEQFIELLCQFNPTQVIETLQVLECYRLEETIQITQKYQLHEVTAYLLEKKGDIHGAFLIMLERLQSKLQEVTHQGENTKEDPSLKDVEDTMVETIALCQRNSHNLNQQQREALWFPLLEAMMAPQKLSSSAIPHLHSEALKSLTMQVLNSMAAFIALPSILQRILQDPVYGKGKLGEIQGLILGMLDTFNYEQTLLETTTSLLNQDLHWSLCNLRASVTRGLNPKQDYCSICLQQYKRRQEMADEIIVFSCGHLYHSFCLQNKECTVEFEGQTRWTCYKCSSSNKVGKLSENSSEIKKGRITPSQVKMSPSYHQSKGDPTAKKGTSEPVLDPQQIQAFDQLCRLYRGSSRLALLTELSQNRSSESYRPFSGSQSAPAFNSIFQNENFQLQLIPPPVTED
# T3: HA-VPS3 (human (cDNA from HeLa Kyoto cells)) (UniProt Q8WUH2)
# T3 sequence: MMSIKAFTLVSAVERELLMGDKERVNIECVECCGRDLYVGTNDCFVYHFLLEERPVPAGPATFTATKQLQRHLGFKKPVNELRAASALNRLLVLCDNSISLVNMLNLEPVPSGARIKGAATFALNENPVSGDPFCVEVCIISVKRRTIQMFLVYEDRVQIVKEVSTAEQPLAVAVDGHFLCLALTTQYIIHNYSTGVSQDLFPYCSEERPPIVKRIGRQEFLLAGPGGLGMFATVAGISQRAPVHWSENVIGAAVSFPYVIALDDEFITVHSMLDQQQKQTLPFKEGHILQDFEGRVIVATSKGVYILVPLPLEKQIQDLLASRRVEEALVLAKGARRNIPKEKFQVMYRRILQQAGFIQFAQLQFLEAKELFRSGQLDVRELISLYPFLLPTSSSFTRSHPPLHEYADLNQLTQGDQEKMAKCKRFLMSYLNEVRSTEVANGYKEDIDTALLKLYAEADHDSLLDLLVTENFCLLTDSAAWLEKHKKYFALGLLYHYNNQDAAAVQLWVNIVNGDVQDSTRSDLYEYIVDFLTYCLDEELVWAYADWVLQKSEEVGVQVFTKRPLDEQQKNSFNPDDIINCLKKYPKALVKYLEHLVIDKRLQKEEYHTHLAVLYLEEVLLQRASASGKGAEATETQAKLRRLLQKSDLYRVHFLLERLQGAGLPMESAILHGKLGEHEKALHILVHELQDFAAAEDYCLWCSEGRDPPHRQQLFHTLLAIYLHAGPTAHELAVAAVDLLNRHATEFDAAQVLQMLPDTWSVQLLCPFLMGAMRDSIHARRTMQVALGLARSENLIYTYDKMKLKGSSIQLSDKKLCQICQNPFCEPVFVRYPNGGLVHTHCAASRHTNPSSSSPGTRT
# How the values were obtained:
# [1] = biological target: T1, Myc-VPS41 (human (cDNA from HeLa Kyoto cells)); assay: co-IP; HeLa cells stably expressing V5-VPS16, transiently co-transfected with Myc-VPS41 or Myc-VPS8, His-VPS18, FLAG-VPS11 and HA-VPS39 or HA-VPS3; cells homogenised in PBS with protease inhibitors; IP with anti-Myc antibody and Protein G magnetic beads, 4 °C overnight; blots with anti-tag antibodies
# [2] = biological target: T2, Myc-VPS8 (human (cDNA from HeLa Kyoto cells)); assay: as above
# [3] = biological target: T3, HA-VPS3 (human (cDNA from HeLa Kyoto cells)); assay: co-IP; WT HeLa cells with single expression of Myc-VPS41, Myc-VPS8, HA-VPS39 or HA-VPS3; lysate in PBS; IP with anti-Myc or anti-HA antibody and Protein G magnetic beads; endogenous partners detected by western blotting
binding [1],binding [2],binding [3],Molecule
binds,binds,–,"class C core (His-VPS18, FLAG-VPS11, V5-VPS16, VPS33A), exogenously expressed subunits (from UniProt Q9P253 1-973; Q9H270 1-941; Q9H269 1-839; Q96AX1 1-596) (complex)"
–,–,binds,"endogenous VPS8 (protein, UniProt Q8N3P4 1-1428) MENEPDHENVEQSLCAKTSEEELNKSFNLEASLSKFSYIDMDKELEFKNDLIDDKEFDIPQVDTPPTLESILNETDDEDESFILEDPTLLNIDTIDSHSYDTSSVASSDSGDRTNLKRKKKLPDSFSLHGSVMRHSLLKGISAQIVSAADKVDAGLPTAIAVSSLIAVGTSHGLALIFGKDQNQALRLCLGSTSVGGQYGAISALSINNDCSRLLCGFAKGQITMWDLASGKLLRSITDAHPPGTAILHIKFTDDPTLAICNDSGGSVFELTFKRVMGVRTCESRCLFSGSKGEVCCIEPLHSKPELKDHPITQFSLLAMASLTKILVIGLKPSLKVWMTFPYGRMDPSSVPLLAWHFVAVQNYVNPMLAFCRGDVVHFLLVKRDESGAIHVTKQKHLHLYYDLINFTWINSRTVVLLDSVEKLHVIDRQTQEELETVEISEVQLVYNSSHFKSLATGGNVSQALALVGEKACYQSISSYGGQIFYLGTKSVYVMMLRSWRERVDHLLKQDCLTEALALAWSFHEGKAKAVVGLSGDASKRKAIVADRMVEILFHYADRALKKCPDQGKIQVMEQHFQDMVPVIVDYCLLLQRKDLLFSQMYDKLSENSVAKGVFLECLEPYILSDKLVGITPQVMKDLIVHFQDKKLMENVEALIVHMDITSLDIQQVVLMCWENRLYDAMIYVYNRGMNEFISPMEKLFRVIAPPLNAGKTLTDEQVVMGNKLLVYISCCLAGRAYPLGDIPEDLVPLVKNQVFEFLIRLHSAEASPEEEIYPYIRTLLHFDTREFLNVLALTFEDFKNDKQAVEYQQRIVDILLKVMVENSDFTPSQVGCLFTFLARQLAKPDNTLFVNRTLFDQVLEFLCSPDDDSRHSERQQVLLELLQAGGIVQFEESRLIRMAEKAEFYQICEFMYEREHQYDKIIDCYLRDPLREEEVFNYIHNILSIPGHSAEEKQSVWQKAMDHIEELVSLKPCKAAELVATHFSGHIETVIKKLQNQVLLFKFLRSLLDPREGIHVNQELLQISPCITEQFIELLCQFNPTQVIETLQVLECYRLEETIQITQKYQLHEVTAYLLEKKGDIHGAFLIMLERLQSKLQEVTHQGENTKEDPSLKDVEDTMVETIALCQRNSHNLNQQQREALWFPLLEAMMAPQKLSSSAIPHLHSEALKSLTMQVLNSMAAFIALPSILQRILQDPVYGKGKLGEIQGLILGMLDTFNYEQTLLETTTSLLNQDLHWSLCNLRASVTRGLNPKQDYCSICLQQYKRRQEMADEIIVFSCGHLYHSFCLQNKECTVEFEGQTRWTCYKCSSSNKVGKLSENSSEIKKGRITPSQVKMSPSYHQSKGDPTAKKGTSEPVLDPQQIQAFDQLCRLYRGSSRLALLTELSQNRSSESYRPFSGSQSAPAFNSIFQNENFQLQLIPPPVTED"
–,binds,–,"HA-VPS3 (protein, UniProt Q8WUH2 1-860) MMSIKAFTLVSAVERELLMGDKERVNIECVECCGRDLYVGTNDCFVYHFLLEERPVPAGPATFTATKQLQRHLGFKKPVNELRAASALNRLLVLCDNSISLVNMLNLEPVPSGARIKGAATFALNENPVSGDPFCVEVCIISVKRRTIQMFLVYEDRVQIVKEVSTAEQPLAVAVDGHFLCLALTTQYIIHNYSTGVSQDLFPYCSEERPPIVKRIGRQEFLLAGPGGLGMFATVAGISQRAPVHWSENVIGAAVSFPYVIALDDEFITVHSMLDQQQKQTLPFKEGHILQDFEGRVIVATSKGVYILVPLPLEKQIQDLLASRRVEEALVLAKGARRNIPKEKFQVMYRRILQQAGFIQFAQLQFLEAKELFRSGQLDVRELISLYPFLLPTSSSFTRSHPPLHEYADLNQLTQGDQEKMAKCKRFLMSYLNEVRSTEVANGYKEDIDTALLKLYAEADHDSLLDLLVTENFCLLTDSAAWLEKHKKYFALGLLYHYNNQDAAAVQLWVNIVNGDVQDSTRSDLYEYIVDFLTYCLDEELVWAYADWVLQKSEEVGVQVFTKRPLDEQQKNSFNPDDIINCLKKYPKALVKYLEHLVIDKRLQKEEYHTHLAVLYLEEVLLQRASASGKGAEATETQAKLRRLLQKSDLYRVHFLLERLQGAGLPMESAILHGKLGEHEKALHILVHELQDFAAAEDYCLWCSEGRDPPHRQQLFHTLLAIYLHAGPTAHELAVAAVDLLNRHATEFDAAQVLQMLPDTWSVQLLCPFLMGAMRDSIHARRTMQVALGLARSENLIYTYDKMKLKGSSIQLSDKKLCQICQNPFCEPVFVRYPNGGLVHTHCAASRHTNPSSSSPGTRT"
